Measurements as given in publication PMC8032764 (Scientific Reports, 2021).

Legend:
GABAA α5β3γ2 = conditions: Table S4a, cited from earlier work
healthy volunteers = test: Resting state EEG in healthy volunteers; format: in vivo, human
[1] = midazolam single dose, 1 h post dose

SMILES: CCOC(=O)c1ncn2c1[C@@H]1CCCN1C(=O)c1cc(OC)ccc1-2 [L-655,708]
- α1/ α5 fold selectivity (GABAA α5β3γ2; ref Atack et al., 2006): 70 fold

SMILES: Cc1cc(-c2nncc3c(C(C)(C)C)c(OCc4ncnn4C)nn23)no1 [MRK-016, 3-tert-butyl-7-(5-methylisoxazol-3-yl)-2-(1-methyl-1H-1,2,4-triazol-5-ylmethoxy)-pyrazolo[1,5-d]-[1,2,4]triazine]
- α1/ α5 fold selectivity (GABAA α5β3γ2; ref Atack et al. 2009): 1 fold

SMILES: COCc1ncn2c1CN(C)C(=O)c1cc(Cl)ccc1-2 [PWZ-029]
- α1/ α5 fold selectivity (GABAA α5β3γ2; ref Savić et al., 2008): 31 fold

SMILES: FC(F)c1ncn2c1Cn1ncnc1-c1cc(Br)ccc1-2 [RO4938581]
- α1/ α5 fold selectivity (GABAA α5β3γ2; ref Ballard et al., 2008): 38 fold

SMILES: Cc1onc(-c2ccc(F)cc2)c1COc1ccc(C(=O)N2CCS(=O)(=O)CC2)cn1 [basmisanil]
- peak frequency of the beta- to low gamma effect (healthy volunteers; 240 mg twice daily, 14 days): 34.9 ± 3.13 Hz
- peak frequency of the low-frequency effect (healthy volunteers; 240 mg twice daily, 14 days): 7.3 ± 0.4 Hz

SMILES: Cc1ncc2n1-c1ccc(Cl)cc1C(c1ccccc1F)=NC2 [midazolam]
- peak frequency of the beta band effect (healthy volunteers; [1]): 18.4 ± 6.06 Hz
- peak frequency of the low-frequency effect (high theta to low alpha) (healthy volunteers; [1]): 8.2 ± 4.12 Hz

SMILES: Cc1cc(-c2nnc3c4ccccc4c(OCc4cn(C)nn4)nn23)no1 [α5IA]
- α1/ α5 fold selectivity (GABAA α5β3γ2; ref Dawson et al., 2006): 1 fold

Like-named read-outs stand apart in the source and are kept apart here.
